PubChem BioAssay AID1259254, NCATS, 2017

Purpose: 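Gene knock-downs that lead to re-replication, shown by excess G2 DNA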 (primary screen)
Cell system: human HCT116 colorectal cancer cells
Knock-down reagent: single siRNA against human genes
Timing: 3 days
Detection: 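Nuclei stained with Hoechst and imaged; cell-cycle phase assigned by DNA content; G2 share scaled per plate, non-targeting siRNA 0%, GMNN siRNA 100%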
Direction: G2 robust z-score and G2 cells, % of GMNN control: higher = more G2 cells, more excess DNA replication; raw share of cells in G2: higher = larger share of cells with G2 DNA content
Active means: 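An siRNA counts as active if its G2 robust z-score lies at least 5 MADs above the screen median; here such calls match roughly 38% of GMNN control or more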
The deposit covers about 59,000 reagents; below is a part drawn at random. Over the whole deposit, about 1,550 (2.6%) were called active. 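G2 share is only a proxy for re-replication; each gene was hit by three separate siRNAs, and active genes were retested.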 The raw values are shown without normalisation. The numbers tell different reagents against one gene apart. Not stated in the record: the amount of reagent.

Gene | reagent no. | G2 robust z-score | G2 cells, % of GMNN control | raw share of cells in G2 (%) | outcome
EYA4 | 1 | 0.0203 | 3.11 | 6.76 | inactive
EYA4 | 2 | 1.13 | 10.9 | 8.08 | inactive
EYA4 | 3 | -0.214 | 1.46 | 4.09 | inactive
SKIC3 | 1 | 0.182 | 4.25 | 7.25 | inactive
SKIC3 | 2 | 3.53 | 27.8 | 15.5 | inactive
SKIC3 | 3 | 1.11 | 10.8 | 7.33 | inactive
SUPT20HL2 | 1 | 2.1 | 17.7 | 9.95 | inactive
SUPT20HL2 | 2 | 0.0873 | 3.58 | 4.16 | inactive
SUPT20HL2 | 3 | -0.117 | 2.14 | 3.44 | inactive
PLBD1 | 1 | 1.51 | 13.6 | 10.1 | inactive
PLBD1 | 2 | -0.685 | -1.85 | 3.49 | inactive
PLBD1 | 3 | -0.506 | -0.594 | 2.21 | inactive
SEPTIN7P2 | 1 | 0.219 | 4.51 | 5.36 | inactive
SEPTIN7P2 | 2 | -0.369 | 0.37 | 3.56 | inactive
SEPTIN7P2 | 3 | -0.88 | -3.23 | 2.02 | inactive
NRN1 | 1 | -0.807 | -2.71 | 2.63 | inactive
NRN1 | 2 | -1.09 | -4.68 | 2.3 | inactive
NRN1 | 3 | 1.79 | 15.5 | 8.33 | inactive
LINC01061 | 1 | 1.66 | 14.7 | 9.34 | inactive
LINC01061 | 2 | -0.951 | -3.72 | 3.25 | inactive
LINC01061 | 3 | 0.82 | 8.73 | 6.99 | inactive
GPR183 | 1 | -0.132 | 2.04 | 6.57 | inactive
GPR183 | 2 | -0.296 | 0.882 | 4.83 | inactive
GPR183 | 3 | 0.0482 | 3.31 | 4.28 | inactive
RNF121 | 1 | 3.45 | 27.2 | 15.7 | inactive
RNF121 | 2 | 0.589 | 7.11 | 6.99 | inactive
RNF121 | 3 | 0.657 | 7.59 | 9.76 | inactive
EMCN | 1 | -0.111 | 2.19 | 4.39 | inactive
EMCN | 2 | 5.08 | 38.7 | 20.6 | active
EMCN | 3 | 1.23 | 11.6 | 7.02 | inactive
KCNE4 | 1 | 0.259 | 4.79 | 8.34 | inactive
KCNE4 | 2 | 0.24 | 4.66 | 5.73 | inactive
KCNE4 | 3 | -1.35 | -6.52 | 1.86 | inactive
SLC22A11 | 1 | 2.03 | 17.2 | 10.6 | inactive
SLC22A11 | 2 | 2.23 | 18.7 | 12.1 | inactive
SLC22A11 | 3 | -0.685 | -1.85 | 5.62 | inactive
ZNF473CR | 1 | 1.41 | 12.9 | 8.49 | inactive
ZNF473CR | 2 | -0.038 | 2.7 | 4.59 | inactive
ZNF473CR | 3 | -1.11 | -4.82 | 2.79 | inactive
SAMD8 | 1 | 0.0349 | 3.21 | 4.91 | inactive
SAMD8 | 2 | -0.00363 | 2.94 | 3.82 | inactive
SAMD8 | 3 | -0.636 | -1.51 | 2.54 | inactive
ZNF415 | 1 | 0.296 | 5.05 | 4.57 | inactive
ZNF415 | 2 | -1.05 | -4.4 | 3.92 | inactive
ZNF415 | 3 | -0.225 | 1.38 | 4.07 | inactive
BLM | 1 | 0.843 | 8.9 | 7.3 | inactive
BLM | 2 | 0.182 | 4.25 | 6.17 | inactive
BLM | 3 | -0.33 | 0.643 | 5.3 | inactive
NR2F2 | 1 | 1.73 | 15.1 | 10.8 | inactive
NR2F2 | 2 | -0.368 | 0.377 | 4.68 | inactive
NR2F2 | 3 | -0.14 | 1.98 | 4.61 | inactive
PIWIL3 | 1 | -0.34 | 0.572 | 3.84 | inactive
PIWIL3 | 2 | 1.29 | 12.1 | 7.99 | inactive
PIWIL3 | 3 | 2.61 | 21.3 | 10.4 | inactive
TMEM169 | 1 | -0.854 | -3.04 | 2.79 | inactive
TMEM169 | 2 | -0.331 | 0.64 | 3.2 | inactive
TMEM169 | 3 | -0.211 | 1.48 | 3.4 | inactive
ANKLE1 | 1 | 1.87 | 16.1 | 10.3 | inactive
ANKLE1 | 2 | 1.59 | 14.2 | 7.59 | inactive
ANKLE1 | 3 | 1.94 | 16.6 | 8.59 | inactive
CTTNBP2 | 1 | 0.894 | 9.26 | 7.19 | inactive
CTTNBP2 | 2 | -0.702 | -1.97 | 2.87 | inactive
CTTNBP2 | 3 | -0.434 | -0.0859 | 2.38 | inactive
ZC3HAV1L | 1 | 0.289 | 5 | 6.21 | inactive
ZC3HAV1L | 2 | -0.0475 | 2.63 | 3.83 | inactive
ZC3HAV1L | 3 | 0.948 | 9.64 | 5.98 | inactive
KISS1 | 1 | 1.01 | 10.1 | 9.26 | inactive
KISS1 | 2 | 0.437 | 6.04 | 6.61 | inactive
KISS1 | 3 | 3.52 | 27.7 | 13.4 | inactive
DPRX | 1 | 0.789 | 8.52 | 6.91 | inactive
DPRX | 2 | 1.15 | 11.1 | 7.62 | inactive
DPRX | 3 | 2.46 | 20.3 | 10 | inactive
PREPL | 1 | -1.08 | -4.61 | 3.95 | inactive
PREPL | 2 | -0.923 | -3.53 | 3.66 | inactive
PREPL | 3 | -0.421 | 0.00739 | 3.91 | inactive
DCAF4L1 | 1 | 3.39 | 26.8 | 13.4 | inactive
DCAF4L1 | 2 | 1.15 | 11 | 7.32 | inactive
DCAF4L1 | 3 | 0.815 | 8.7 | 5.91 | inactive
H3C3 | 1 | -0.00872 | 2.91 | 6.42 | inactive
H3C3 | 2 | 0.171 | 4.17 | 5.55 | inactive
H3C3 | 3 | -0.351 | 0.498 | 3.52 | inactive
NFRKB | 1 | -0.789 | -2.59 | 2.34 | inactive
NFRKB | 2 | 0.165 | 4.13 | 7.11 | inactive
NFRKB | 3 | 2.23 | 18.7 | 12.6 | inactive
HSPB2 | 1 | 1.06 | 10.5 | 9.74 | inactive
HSPB2 | 2 | -0.999 | -4.06 | 1.63 | inactive
HSPB2 | 3 | -0.112 | 2.18 | 4.33 | inactive
